Results deposited as PubChem BioAssay AID1259308 (NCATS, 2017)
Assay: 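Knock-downs that increase output of a recombinant reporter protein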 (primary screen). Cell system: human HEK293 embryonic kidney cells stably expressing firefly luciferase (HEK-CMV-Luc2-Hygro). Knock-down reagent: single siRNA against human genes, 0.8 pmol siRNA per well. Duration: 72 h. Detection: 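Reporter luminescence and viable-cell signal on separate replicate plates, given as percent of non-targeting control and median/MAD z-scores, plus per-cell luciferase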. Reading the numbers: total luciferase, z-score: higher = more reporter protein produced. Rule for the call: 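Active when the median/MAD z-score for overall luciferase is greater than 3; a gene was taken forward for validation with new siRNAs if at least two of its three siRNAs passed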. Meaning of the calls: active = raised luciferase; inactive = no rise.
The whole screen tested about 59,000 reagents; this is a random part of them. About 1,510 of all reagents (2.6%) count as active. 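Calls use total luciferase alone and ignore viability, so some active siRNAs may act by altering cell number.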 Entries without a mark were called inactive. Further read-outs or replicates are left out here. No sequences are given here.

gene symbol,PubChem SID,"total luciferase, z-score"
SORL1 (GeneID 6653),SID160717183,-0.399
SORL1 (GeneID 6653),SID160717184,-0.988
SORL1 (GeneID 6653),SID160717185,2.83
RPL29P31 (GeneID 284064),SID160763134,0.878
RPL29P31 (GeneID 284064),SID160763135,-1.11
RPL29P31 (GeneID 284064),SID160763136,0.0202
KRTAP12-1 (GeneID 353332),SID160733148,-0.0539
KRTAP12-1 (GeneID 353332),SID160765188,-0.206
KRTAP12-1 (GeneID 353332),SID160765189,5.25 (active)
VKORC1 (GeneID 79001),SID160724532,-1.02
VKORC1 (GeneID 79001),SID160748454,1.35
VKORC1 (GeneID 79001),SID160748455,-0.189
LZTFL1 (GeneID 54585),SID160741951,-0.432
LZTFL1 (GeneID 54585),SID160741952,0.597
LZTFL1 (GeneID 54585),SID160741953,2.57
TPM4 (GeneID 7171),SID160718285,0.463
TPM4 (GeneID 7171),SID160718286,-0.141
TPM4 (GeneID 7171),SID160718287,0.375
RTL3 (GeneID 203430),SID160761144,0.115
RTL3 (GeneID 203430),SID160761145,-0.996
RTL3 (GeneID 203430),SID160761146,-0.0873
NLRP11 (GeneID 204801),SID160761173,0.562
NLRP11 (GeneID 204801),SID160761174,0.61
NLRP11 (GeneID 204801),SID160761175,1.6
MCOLN1 (GeneID 57192),SID160745803,0.25
MCOLN1 (GeneID 57192),SID160745804,2.06
MCOLN1 (GeneID 57192),SID160745805,0.216
WTIP (GeneID 126374),SID160756472,0.297
WTIP (GeneID 126374),SID160756473,1.07
WTIP (GeneID 126374),SID160756474,2.22
TINAGL1 (GeneID 64129),SID160747504,-0.497
TINAGL1 (GeneID 64129),SID160747505,-1.64
TINAGL1 (GeneID 64129),SID160747506,-0.579
MDM4 (GeneID 4194),SID160777094,0.952
MDM4 (GeneID 4194),SID160777095,-2.12
MDM4 (GeneID 4194),SID160777096,-1.13
UBE2H (GeneID 7328),SID160718537,1.19
UBE2H (GeneID 7328),SID160718538,-0.38
UBE2H (GeneID 7328),SID160718539,0.712
CCNQ (GeneID 92002),SID160754164,0.221
CCNQ (GeneID 92002),SID160754165,3.1 (active)
CCNQ (GeneID 92002),SID160754166,-0.241
RBM5 (GeneID 10181),SID160726600,-0.0495
RBM5 (GeneID 10181),SID160726606,3.66 (active)
RBM5 (GeneID 10181),SID160726613,-0.506
NR1H2 (GeneID 7376),SID160718636,0.186
NR1H2 (GeneID 7376),SID160718637,0.272
NR1H2 (GeneID 7376),SID160718638,0.25
RFPL1 (GeneID 5988),SID160715837,-0.527
RFPL1 (GeneID 5988),SID160715838,3.41 (active)
RFPL1 (GeneID 5988),SID160715839,-1.52
NRL (GeneID 4901),SID160778246,-0.632
NRL (GeneID 4901),SID160778247,-0.171
NRL (GeneID 4901),SID160778248,1.05
BRMS1L (GeneID 84312),SID160752133,-0.462
BRMS1L (GeneID 84312),SID160752134,0.6
BRMS1L (GeneID 84312),SID160752135,-0.123
PRSS47P (GeneID 138652),SID160757606,1.13
PRSS47P (GeneID 138652),SID160757607,2.31
PRSS47P (GeneID 138652),SID160757608,1.62
TNNC1 (GeneID 7134),SID160718211,-0.00127
TNNC1 (GeneID 7134),SID160731845,0.988
TNNC1 (GeneID 7134),SID160731846,-2.23
POM121 (GeneID 9883),SID160723340,0.872
POM121 (GeneID 9883),SID160723341,-2.29
POM121 (GeneID 9883),SID160735258,1.76
GJC1 (GeneID 10052),SID160724571,-1.62
GJC1 (GeneID 10052),SID160724587,-0.475
GJC1 (GeneID 10052),SID160730399,-0.35
SLC61A1 (GeneID 84975),SID160732053,1.08
SLC61A1 (GeneID 84975),SID160753073,-0.14
SLC61A1 (GeneID 84975),SID160753074,-1.63
GUSBP18 (GeneID 643373),SID160725626,-0.549
GUSBP18 (GeneID 643373),SID160768858,0.211
GUSBP18 (GeneID 643373),SID160768860,-0.335
